Source: PubChem BioAssay AID540276 (National Center for Advancing Translational Sciences (NCATS), 2011)
“And” between values parts separate entries of the source, which are not always exact repeats. Equal values may be shown once. The whole screen tested about 300,000 compounds, of which about 5,400 (1.8%) were called active. The shares of active, inactive and inconclusive entries below differ from those in the screen. Calls come from the whole dose curve; tested in HEK293 cells. Where the call is inconclusive, the potency comes from a doubtful curve fit.

Test: qHTS for inhibitors of binding or entry into cells for Marburg Virus
Settings: Marburg virus pseudotyped entry inhibition, cell reporter; series mostly up to 37.8 µM
Potency is the fitted concentration of half-maximal effect.

SMILES | Potency
COc1ccc(-c2cn(-c3ccc(OC)cc3)c3[n+]2-c2ccccc2CC3)cc1 | inconclusive: 8.91 µM [inhibitor, partial curve, poor fit]
CN(C)CCCn1c(=O)n(Cc2ccco2)c(=O)c2c3c(sc21)CCCCC3 | inconclusive: 35.5 µM [inhibitor, single point]
COC(=O)C1CCN(C(=O)c2cc3c(=O)n4cccc(C)c4nc3n2Cc2ccccc2)CC1 | inconclusive: 0.891 µM [inhibitor, single point]
CCCCC(=NCCc1c(C)[nH]c2ccc(OC)cc12)C1=C(O)CC(c2ccccc2)CC1=O (stereo not given) | active: 7.94 µM
O=C(NCc1ccc(F)cc1)c1cc2ccccn2n1 | inactive
O=C(CCC(=O)c1cccs1)OCC(=O)c1ccccc1F | inconclusive: 6.31 µM [inhibitor, single point]
C=CCN1C(=O)[C@]2(OCCC=C[C@H]2C)c2c(Br)cccc21 | inconclusive: 2.99 µM [activator, single point]
O=C(OCC(=O)N1CCN(C(=O)c2ccco2)CC1)c1ccccc1 | inactive
CC(C)(C)c1nnc(SCC(=O)c2ccccc2)n(N)c1=O | inconclusive: 0.651 µM [activator, full curve, poor fit]
COc1ccc(-c2ccnc3nc(N4CCN(c5ccccc5)CC4)nn23)cc1 | inconclusive: 8.2 µM [inhibitor, partial curve]
CS(=O)(=O)N(CC(=O)N/N=C/c1cccc2c1OCCO2)c1ccccc1Br | inactive
Cc1c(NC(=O)C2CCCCC2)cc(C(=O)N2CCOCC2)cc1[N+](=O)[O-] | inactive
Cc1ccc2nc3c(c(Nc4ccc5c(c4)OCCO5)c2c1)CCC3 | inconclusive: 23.1 µM [inhibitor, single point]
CCCCCCC(C)n1[nH]c(=O)c2c(C)cc(=O)[nH]c21 (stereo not given) | inconclusive: 3.98 µM [inhibitor, full curve, poor fit]
COc1ccc(Nc2cc(C)nc3ncnn23)c(OC)c1 | inactive
CCCOc1ccc(N2C(=O)CC(N(CCc3ccccc3)C(=O)c3ccccc3)C2=O)cc1 (stereo not given) | inactive
CCOc1ccccc1N1C(=O)CC(Sc2ncccc2C(=O)O)C1=O (stereo not given) | inconclusive: 0.92 µM [inhibitor, partial curve, poor fit]
COc1ccc(CCNc2c(C)c(C)nc3ncnn23)cc1 | inconclusive: 2.59 µM [inhibitor, partial curve, poor fit]
C(=N\c1nccs1)/c1cccnc1 | inactive
CC(=O)c1sc(NC(=O)c2ccc3c(c2)OCO3)nc1C | inconclusive: 0.794 µM [activator, full curve, poor fit]
CCOc1cccc2sc(=NC(=O)c3ccco3)n(CC(=O)OC)c12 | inconclusive: 10 µM [inhibitor, partial curve, poor fit]
CN(CCc1ccccn1)C(=O)CCc1nnc(CCCc2ccccc2)o1 | inconclusive: 4.47 µM [activator, single point]
CCc1ccc(NC2CC(=O)N(c3ccc(OC)cc3OC)C2=O)cc1 (stereo not given) | inactive
Fc1ccc(CNc2ncnc3c2cnn3-c2ccccc2)cc1 | inactive

In a second layout: 2 of the compounds above
O=C(NCc1ccc(F)cc1)c1cc2ccccn2n1
  Potency: inactive
Cc1c(NC(=O)C2CCCCC2)cc(C(=O)N2CCOCC2)cc1[N+](=O)[O-]
  Potency: inactive

Later entries:

SMILES | Potency
CC(C)c1ccc(-n2nc3ccc(N)cc3n2)cc1 | inconclusive: 35.5 µM [inhibitor, single point]
c1ccc2c(c1)nc1n2C2(N3CCOCC3)CCCC2C1N1CCOCC1 (stereo not given) | inactive
COc1ccc(Cn2c(=O)[nH]c3cc(C(=O)N4CCN(c5cccc(OC)c5)CC4)ccc3c2=O)cc1 | inactive
O[C@H]1C[C@H](c2ccc(Cl)cc2)N(Cc2cccs2)C[C@H]1n1cc(C2CC2)nn1 | inconclusive: 28.1 µM [inhibitor, partial curve, poor fit]
Cc1ccc2cccc(NC(=O)C(F)(F)F)c2n1 | inactive
CN(C)S(=O)(=O)c1cccc(-c2nnc(-c3ccccc3)o2)c1 | inconclusive: 29.1 µM [activator, single point]
COc1ccc(Cn2nnnc2C(C(C)C)N(Cc2ccco2)Cc2cccs2)cc1 (stereo not given) | inconclusive: 17.8 µM [inhibitor, partial curve, poor fit]
COc1ccc(C(=O)C2CCCN(C/C=C/c3ccccc3OC)C2)c(OC)c1 (stereo not given) | inconclusive: 7.94 µM [inhibitor, partial curve, poor fit]
COC(=O)c1ccc(Cn2nc(C)cc2C)cc1 | inactive
CC(=O)N1CC=CC1(CC(C)C)C(=O)NCCc1c[nH]c2ccccc12 (stereo not given) | inactive
COc1ccc(-c2[nH]ncc2CN2CCN(c3ccccn3)CC2)c(OC)c1 | inactive
O=C1CC(c2ccc(Cl)cc2)CC(O)=C1C=NCc1ccc(Cl)c(Cl)c1 (stereo not given) | inactive
Cc1n[nH]c(C)c1N1C(=O)c2cccc3c(Br)ccc(c23)C1=O | inactive
COc1ccc(S(=O)(=O)N2CCOCC2)cc1NC(=O)c1ccc(-n2nc(C)cc2C)cc1 | inactive
COc1ccc(C(=O)Nc2nc3ccccc3[nH]2)cc1 | inconclusive: 6.31 µM [inhibitor, full curve, poor fit]
O=C(NC1CCCCC1)c1c[nH]c2ccc(S(=O)(=O)Nc3ccccc3F)cc2c1=O | inactive
CCOC(=O)C1=C(C)NC(=O)NC1c1c(OCC(=O)N2CCCCC2)ccc2ccccc12 (stereo not given) | inconclusive: 10 µM [inhibitor, partial curve, poor fit]
Cc1cc(C)n(/N=C/c2cccc(O)c2)c(=O)c1C(N)=O | inconclusive: 11.2 µM [inhibitor, partial curve]
Cc1ccc(NS(=O)(=O)c2cc([N+](=O)[O-])ccc2NNC(=S)Nc2cccc(Cl)c2)c(C)c1 | inconclusive: 0.126 µM [inhibitor, full curve, poor fit]
C/C(CC(=O)Nc1ccc([N+](=O)[O-])cc1)=N\NC(=O)c1ccccc1[N+](=O)[O-] | inactive
CCOC(=O)c1sc(=S)n(-c2ccccc2Cl)c1C | inconclusive: 11.2 µM [inhibitor, partial curve, poor fit]
FC(F)(F)c1cnc2c(c1)Nc1ccccc1S2 | inactive
CCOc1ccc(CN(C)C(C)C(=O)NCCc2ccc(F)cc2)cc1 (stereo not given) | inactive
COc1ccc(CC(NC(C)=O)C(=O)N2CCN(C(=O)Nc3cccc(Cl)c3)CC2)cc1OC (stereo not given) | inconclusive: 5.01 µM [activator, single point]

SMILES | Potency
CC(C)c1ccc(NC(=O)COc2ccc(F)cc2C(=O)c2cnn(-c3ccccc3)c2)cc1 | inconclusive: 25.1 µM [inhibitor, single point]
COC(=O)[C@H]1[C@H](C)[C@@]2(O)c3ccccc3N(C)[C@@]1(C)[C@H]2O | inactive
CCOC(=O)NNc1ccccc1 | inconclusive: 17.8 µM [inhibitor, partial curve, poor fit]
C=CCNc1ccc(C(=O)O)cc1 | inconclusive: 0.631 µM [inhibitor, single point]
NC(=O)C(=O)O | inconclusive: 11.2 µM [inhibitor, partial curve, poor fit]
COc1cc(Cc2cnc(N)nc2N)cc(OC)c1OC | inactive and inconclusive: 820 nM [activator, full curve, poor fit]
CCOC(=O)CNC(=O)Cn1cnc2c(cnn2-c2ccc(C)cc2)c1=O | inactive
COc1cccc(C=NNC(=O)C2CC2)c1 | inconclusive: 8.91 µM [activator, partial curve, poor fit]
COCCOc1cnn(-c2cc(Oc3ccc(C)cc3)ncn2)c(=O)c1Cl | inconclusive: 6.31 µM [activator, single point]
O=S(=O)(Nc1ccc(S(=O)(=O)N2CCCC2)cc1)c1ccc(F)cc1F | inconclusive: 12.6 µM [inhibitor, single point]
CCNC(=S)Nc1cccc([N+](=O)[O-])c1 | inactive
CC1(C)O[C@H]2O[C@@H]([C@H](O)CON3C(=O)c4ccccc4C3=O)[C@H](O)[C@H]2O1 | inconclusive: 0.0094 µM [inhibitor, full curve, poor fit]
Cc1ccc(/C=C/C(=O)OC(C)C(=O)Nc2ccc(Cl)cn2)o1 (stereo not given) | inconclusive: 0.794 µM [inhibitor, full curve, poor fit]
COc1cc(/C=C/c2ccc3cccc([N+](=O)[O-])c3n2)ccc1OCC#N | inconclusive: 35.5 µM [inhibitor, single point]
Cc1ccc(SCC(=O)NCCc2ccccc2)cc1 | inactive
Cc1ccc(OCC(=O)Nc2ccc(Cl)c(-c3nc4ccccc4[nH]3)c2)cc1C | inconclusive: 3.55 µM [inhibitor, single point]
COc1ccc(S(=O)(=O)N(CC(=O)N(C)Cc2ccccc2)c2ccc(Cl)cc2)cc1 | inactive
CCOC(=O)/C=C1\SCC(=O)N1CC(O)CN1C(=O)CS/C1=C\C(=O)OCC | inconclusive: 1.41 µM [activator, partial curve, poor fit]
O=C1C=C(Nc2cccnc2)c2ccccc2C1=O | inconclusive: 20 µM [inhibitor, single point]
COc1ccc(/C=N/Nc2nc3ccccc3c(=O)n2-c2ccccc2)cc1OC | inconclusive: 3.16 µM [activator, single point]
Cc1ccc(NC(=O)c2cc([N+](=O)[O-])ccc2N2CCOCC2)cc1S(=O)(=O)N(C)C | inconclusive: 20.6 µM [inhibitor, single point]
Cc1ccc(SC(C)C(=O)NCc2ccc(F)cc2)cc1 (stereo not given) | inconclusive: 7.94 µM [activator, partial curve, poor fit]
